Positions count from the first letter of the chain named. No constants are given. Whether binding was seen depends on the method and setting.
B1: 162-E9 (VHH)
VHH: EVQLVESGGGLVQPGGSLRLSCAASGFTLDDYAIGWFRQAPGKEREAVSCISSVDGSTHYADSVKGRFTISRDNAKDTVYLQMNSLKPEDTAAYYCAVQGYSGGYYYTCEDSADFGFWGQGTQVTVSS
notes: Nanobody
B2: 162-H10 (VHH)
VHH: B1 VHH with I34V, A47G, S52G, V54S, D55Y, H59Y, D77N, A93V
notes: Nanobody
B3: 162-E1 (VHH)
VHH: EVQLVESGGGLVQAGGSLRLSCAASGSIFSINAMGWYQQAPGKQRELVAFITSVGTTNYADSVKGRFIISRDNAKNTVYLQMNSLKPEDTAVYYCAADLHYSGPNYWGQGTQVTVSS
notes: Nanobody; Footnote: q in FR2 of 162-E1 from an Amber stop codon
B4: 162-F3 (VHH)
VHH: EVQLVESGGGLVQAGDSLRLSCTTSGRTFSDDTMGWFRQAPRKEREFVAAILWDSIKTYYADSVKGRFTISRDNAKNTVYLQMDSLKPEDTAVYYCAATPTAYGTDWYRNNYHYWGQGTQVTVSS
notes: Nanobody
B5: 163-H8 (VHH)
VHH: EVQLVESGGGLVQPGGSLRLSCAASGFTFGSNGMRWVRQAPGKGPEWVSSINSDGTSTYYAESVKGRFTISRDNAKNTLYLQMHSLKPEDTAVYYCTTTENPNPRGPGTQVTVSS
notes: Nanobody
B6: 163-G8 (VHH)
VHH: B5 VHH with T58A, Y59F, H84N, E100M, P107Q
notes: Nanobody
B7: 163-E9 (VHH)
VHH: B5 VHH with G16D, E62D, Y80C, H84N, N101D, N103Y, P107Q
notes: Nanobody; also called Nanobody 163E9; Tie-2 Nanobody 163E9
B8: 162-F11 (VHH)
VHH: EVQLVESGGGLVQAGGSLRLSCAASGFTFDDYAIGWFRQAPGKEREGVACISSSDGSTYYADSVKGRFTISSDNAKNTVYLQMNSLKPEDTAVYSCSAGSVAGCIPYYWGQGTQVTVSS
notes: Nanobody
B9: 163-E7 (VHH)
VHH: EVQLVESGGGLVQPGGSLRLSCAASGFTFSDYSMSWVRQAPGKGLEWVSAISGGGEVTTYADSVKGRFTISRDNAKNTLYLQMSSLKPEDTALYYCAEHLNFYSVSVRSSPTSQGTQVTVSS
notes: Nanobody

The binders below were run against hIgG+rh B7.2/Fc (human) (assay: condition: 10 ul phage supernatant in 100 ul (one dilution); phage ELISA on coated control proteins (0.2 ug/ml human IgG and 0.2 ug/ml rh B7.2/Fc), anti-M13-HRP, OD 450 nm).

binding | Binder
no binding | B1
no binding | B2
no binding | B3
no binding | B4
no binding | B5
no binding | B6
no binding | B7
no binding | B8
no binding | B9

Reference: patent US20120076796A1 (Ablynx, published 2012)
